# Reference: PMC6113625
# These are yes or no findings as the source states them, for the method shown. Binding seen in cells or lysates may run through a third protein. Sequences can lack the tags named with a protein.
# What was measured:
# [1] = molecular target: recombinant adenylate cyclase domain peptide of B. pertussis CyaA (B. pertussis ACD), nonphosphorylated (Bordetella pertussis Tohama I) (UniProt P0DKX7); experiment: co-IP; reaction solutions of ACD (1 nM), with or without PKA phosphorylation, preincubated with 48 µg of the FLAG-14-3-3γ-containing E. coli fraction; immunoprecipitated with an anti-ACD antibody, immunoblotted with an anti-14-3-3 antibody and anti-CyaA antibody (3D1); only the target purified
# [2] = molecular target: B. pertussis ACD phosphorylated by protein kinase A in vitro (Bordetella pertussis Tohama I) (UniProt P0DKX7); experiment: as above
binder,measurement,setting,value
"FLAG-14-3-3γ expressed in E. coli (protein, UniProt P61981 1-247) MVDREQLVQKARLAEQAERYDDMAAAMKNVTELNEPLSNEERNLLSVAYKNVVGARRSSWRVISSIEQKTSADGNEKKIEMVRAYREKIEKELEAVCQDVLSLLDNYLIKNCSETQYESKVFYLKMKGDYYRYLAEVATGEKRATVVESSEKAYSEAHEISKEHMQPTHPIRLGLALNYSVFYYEIQNAPEQACHLAKTAFDDAIAELDTLNEDSYKDSTLIMQLLRDNLTLWTSDQQDDDGGEGNN",binding,[1],no binding
same,binding,[2],no binding
